From publication PMC10516711 come the findings set out here.

By UniProt entry, the sequences of proteins in these tests, tags left out. Where a name states a change or a piece, a line headed by the entry shows the natural chain unless it says otherwise. Chains listed by the source or under a name are the forms on record and can include a tag or linker.
FLAG-SET/TAF-Iβ (Q01105, form named): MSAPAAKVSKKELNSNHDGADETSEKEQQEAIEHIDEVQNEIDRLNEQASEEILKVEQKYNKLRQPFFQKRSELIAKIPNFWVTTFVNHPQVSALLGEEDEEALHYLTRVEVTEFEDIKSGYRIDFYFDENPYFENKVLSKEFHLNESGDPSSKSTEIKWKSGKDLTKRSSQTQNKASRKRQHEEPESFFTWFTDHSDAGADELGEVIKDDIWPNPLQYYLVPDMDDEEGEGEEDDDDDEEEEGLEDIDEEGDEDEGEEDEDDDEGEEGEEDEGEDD
UniProt P19474: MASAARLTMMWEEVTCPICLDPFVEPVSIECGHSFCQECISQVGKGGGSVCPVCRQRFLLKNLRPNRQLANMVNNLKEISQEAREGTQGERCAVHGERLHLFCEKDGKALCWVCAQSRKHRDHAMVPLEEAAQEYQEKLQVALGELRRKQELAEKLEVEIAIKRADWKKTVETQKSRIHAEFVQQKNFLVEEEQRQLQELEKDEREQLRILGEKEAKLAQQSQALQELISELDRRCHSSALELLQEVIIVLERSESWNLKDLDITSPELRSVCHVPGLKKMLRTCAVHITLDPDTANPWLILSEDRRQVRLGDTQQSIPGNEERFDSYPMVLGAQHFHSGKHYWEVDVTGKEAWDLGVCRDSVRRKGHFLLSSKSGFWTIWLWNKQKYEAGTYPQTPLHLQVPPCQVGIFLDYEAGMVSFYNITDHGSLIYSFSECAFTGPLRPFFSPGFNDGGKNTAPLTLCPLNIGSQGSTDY

This experiment deals with FLAG-SET/TAF-Iβ (UniProt Q01105). Briefly: affinity purification with mass spectrometry; FLAG-SET/TAF-Iβ overexpressed in HCT116 cells, immunoprecipitated with anti-FLAG antibody, SDS-PAGE, in-gel trypsin digestion, LC-MS/MS.

These are yes or no findings as the source states them, for the method shown. Binding seen in cells or lysates may run through a third protein. These calls come from enrichment with a bait or labelling near it, and not all partners need be listed.

For the substance “TRIM21, endogenous (from UniProt P19474 1-475)”, the binding result is “binds”.
